Results are given in words; binding and its absence hold for the method and conditions named. Some binding calls cover weakened binding; strength is not graded here. For part of these data: Tags and fused reporters may be left off the sequences shown.
Columns and labels:
OX40-His融合蛋白 = molecular target: T1, OX40-His融合蛋白 (UniProt P43489); assay: ELISA, fusion protein coated at 1μg/ml, antibody at 1μg/mL
T1 sequence (looked up): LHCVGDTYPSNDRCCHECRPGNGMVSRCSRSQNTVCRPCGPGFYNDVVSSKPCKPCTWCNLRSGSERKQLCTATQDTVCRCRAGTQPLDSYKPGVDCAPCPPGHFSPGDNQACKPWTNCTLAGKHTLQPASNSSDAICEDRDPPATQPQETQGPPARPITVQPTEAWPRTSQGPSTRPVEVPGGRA

OX40-rFc融合蛋白 = molecular target: T2, OX40-rFc融合蛋白 (UniProt P43489); assay: as above
T2 sequence (looked up): T1 sequence (looked up)

[1] = molecular target: OX40 expressed on cells (OX40-293F细胞; 19B3 HEK293 NF-κB报告细胞系) (UniProt P43489); assay: Flow cytometry (FACS) on transiently transfected OX40-293F cells; antibody in 3-fold dilutions from 10μg/mL; anti-mouse-FITC detection

binding (OX40-His融合蛋白): binds
binding (OX40-rFc融合蛋白): binds
binding [1]: binds
B1: 本发明抗OX40抗体 (murine monoclonal anti-OX40 antibody of the invention) (antibody, V domains shown)
VH: EVQLQQSGAELVKPGASVKLSCKASGYTFTNYWIHWVKQRPGQGLEWIGEINPSNGRTNSNEKFKNKATLTVDKSSSTAYMQLSSLTSEDSAVYYCAEAVPYYFVYWGQGTTLTVSS
VL: DIVMTQAASSLSASLGDRVTISCRASQDINNYLNWYQQKPDGTVKLLIYFTSGLRSGVPSRFSGSGSGTDYSLTISNLEQEDIATYFCQQGNTLPLTFGAGTKLELN
